Source: article PMC10963591
Results are given in words; binding and its absence hold for the method and conditions named. Binding seen in cells or lysates may run through a third protein. Some entries that bind do so weakly or less than the wild type.

Protein sequences, listed by entry. Tags and fused reporters are not part of them.
UniProt P84022: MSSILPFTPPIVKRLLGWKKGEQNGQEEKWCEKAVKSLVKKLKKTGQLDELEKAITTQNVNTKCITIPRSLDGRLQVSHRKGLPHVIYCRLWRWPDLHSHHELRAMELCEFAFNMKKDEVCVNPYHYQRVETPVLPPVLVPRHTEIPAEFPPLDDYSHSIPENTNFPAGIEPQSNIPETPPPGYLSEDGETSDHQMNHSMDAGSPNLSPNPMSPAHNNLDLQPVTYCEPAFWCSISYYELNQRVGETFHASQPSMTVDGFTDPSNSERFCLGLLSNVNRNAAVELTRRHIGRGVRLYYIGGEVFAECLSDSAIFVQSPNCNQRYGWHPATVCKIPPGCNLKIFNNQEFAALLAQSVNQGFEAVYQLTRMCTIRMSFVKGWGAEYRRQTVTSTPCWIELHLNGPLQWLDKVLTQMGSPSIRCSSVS
UniProt Q9UNE7: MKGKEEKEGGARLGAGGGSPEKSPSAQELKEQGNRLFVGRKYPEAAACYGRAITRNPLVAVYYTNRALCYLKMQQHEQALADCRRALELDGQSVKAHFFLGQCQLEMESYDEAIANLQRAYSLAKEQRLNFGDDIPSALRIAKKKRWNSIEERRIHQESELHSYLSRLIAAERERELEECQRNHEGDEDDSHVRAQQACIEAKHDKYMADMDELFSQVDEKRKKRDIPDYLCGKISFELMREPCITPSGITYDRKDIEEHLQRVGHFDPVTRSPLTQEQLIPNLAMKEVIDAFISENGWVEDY
UniProt P40337: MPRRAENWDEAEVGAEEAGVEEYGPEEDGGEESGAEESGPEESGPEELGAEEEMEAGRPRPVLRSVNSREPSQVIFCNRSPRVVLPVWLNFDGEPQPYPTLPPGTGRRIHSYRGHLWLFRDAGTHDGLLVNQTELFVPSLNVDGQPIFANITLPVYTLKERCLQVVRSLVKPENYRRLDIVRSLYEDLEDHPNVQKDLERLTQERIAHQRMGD

Target: Smad3 (human (endogenous in A549 and H1975)) (UniProt P84022)
Assay: co-IP; A549 and H1975 cells, with or without Linc00673-V3 knockdown; NP40 lysis buffer with protease inhibitor cocktail; pre-cleared with IgG and Protein A/G PLUS-Agarose; lysate with primary antibody at 4°C overnight; Western blot

binding	Substance
binds	STUB1 (from UniProt Q9UNE7 1-303) (enzyme)
binds	VHL (from UniProt P40337 1-213)
